Data from article PMC6506760.
Results are given in words; binding and its absence hold for the method and conditions named. In cells and extracts the contact can be indirect. Here binding means that the protein was enriched with, or labelled near, the bait; the list need not be complete.

Protein sequences, listed by entry. Tags and fused reporters are not part of them.
UniProt P12520: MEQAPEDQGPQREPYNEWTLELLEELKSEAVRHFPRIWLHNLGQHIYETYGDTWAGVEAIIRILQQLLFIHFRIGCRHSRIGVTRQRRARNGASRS
UniProt Q9UHI6: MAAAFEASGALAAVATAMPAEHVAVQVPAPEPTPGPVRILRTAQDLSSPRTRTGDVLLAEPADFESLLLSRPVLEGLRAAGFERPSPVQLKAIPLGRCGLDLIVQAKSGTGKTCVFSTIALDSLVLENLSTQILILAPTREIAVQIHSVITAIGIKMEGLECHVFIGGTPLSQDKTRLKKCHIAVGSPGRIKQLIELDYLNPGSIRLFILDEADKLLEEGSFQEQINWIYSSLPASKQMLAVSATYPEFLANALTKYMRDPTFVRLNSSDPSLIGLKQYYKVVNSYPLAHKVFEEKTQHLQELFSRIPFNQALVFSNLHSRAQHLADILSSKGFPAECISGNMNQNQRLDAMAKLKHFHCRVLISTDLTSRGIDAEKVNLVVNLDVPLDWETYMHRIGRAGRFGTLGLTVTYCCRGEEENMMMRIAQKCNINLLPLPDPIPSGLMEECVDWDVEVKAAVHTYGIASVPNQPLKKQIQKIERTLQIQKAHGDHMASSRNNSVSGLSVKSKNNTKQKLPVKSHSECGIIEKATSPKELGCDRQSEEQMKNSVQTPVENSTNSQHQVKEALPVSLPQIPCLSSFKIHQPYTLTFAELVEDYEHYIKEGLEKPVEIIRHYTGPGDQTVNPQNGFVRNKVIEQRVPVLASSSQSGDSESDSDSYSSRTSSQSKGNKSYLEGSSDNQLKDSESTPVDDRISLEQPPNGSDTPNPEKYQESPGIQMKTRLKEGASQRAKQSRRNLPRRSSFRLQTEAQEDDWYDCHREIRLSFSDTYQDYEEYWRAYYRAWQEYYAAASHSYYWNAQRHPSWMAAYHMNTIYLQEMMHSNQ
UniProt P57678: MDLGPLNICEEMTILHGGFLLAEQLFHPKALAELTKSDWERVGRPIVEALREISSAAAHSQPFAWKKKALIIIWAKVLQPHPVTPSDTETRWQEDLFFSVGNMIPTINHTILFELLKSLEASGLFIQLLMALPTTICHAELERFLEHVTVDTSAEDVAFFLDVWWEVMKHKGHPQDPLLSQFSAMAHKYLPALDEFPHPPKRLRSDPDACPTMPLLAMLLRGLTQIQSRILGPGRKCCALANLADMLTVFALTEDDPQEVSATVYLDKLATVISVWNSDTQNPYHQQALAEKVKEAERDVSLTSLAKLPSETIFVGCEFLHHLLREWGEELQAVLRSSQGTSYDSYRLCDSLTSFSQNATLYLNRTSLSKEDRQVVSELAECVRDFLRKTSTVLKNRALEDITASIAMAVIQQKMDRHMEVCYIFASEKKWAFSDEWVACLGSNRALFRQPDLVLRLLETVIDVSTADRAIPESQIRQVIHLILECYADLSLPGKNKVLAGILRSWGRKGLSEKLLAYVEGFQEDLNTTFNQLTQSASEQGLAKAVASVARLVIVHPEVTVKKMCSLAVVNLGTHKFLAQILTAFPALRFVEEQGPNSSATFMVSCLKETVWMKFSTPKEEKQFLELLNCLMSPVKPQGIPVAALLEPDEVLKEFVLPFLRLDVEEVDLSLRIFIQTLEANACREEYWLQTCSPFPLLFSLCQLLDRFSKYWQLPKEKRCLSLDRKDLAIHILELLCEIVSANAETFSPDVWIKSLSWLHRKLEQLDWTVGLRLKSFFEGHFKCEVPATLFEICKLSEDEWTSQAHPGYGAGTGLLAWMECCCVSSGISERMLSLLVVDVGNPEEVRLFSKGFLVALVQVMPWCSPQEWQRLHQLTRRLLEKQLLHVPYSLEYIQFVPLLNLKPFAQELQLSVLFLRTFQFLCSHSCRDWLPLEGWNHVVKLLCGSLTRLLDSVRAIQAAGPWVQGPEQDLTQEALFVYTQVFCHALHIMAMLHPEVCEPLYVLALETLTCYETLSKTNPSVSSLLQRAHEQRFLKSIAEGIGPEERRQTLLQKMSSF
UniProt Q8NI77: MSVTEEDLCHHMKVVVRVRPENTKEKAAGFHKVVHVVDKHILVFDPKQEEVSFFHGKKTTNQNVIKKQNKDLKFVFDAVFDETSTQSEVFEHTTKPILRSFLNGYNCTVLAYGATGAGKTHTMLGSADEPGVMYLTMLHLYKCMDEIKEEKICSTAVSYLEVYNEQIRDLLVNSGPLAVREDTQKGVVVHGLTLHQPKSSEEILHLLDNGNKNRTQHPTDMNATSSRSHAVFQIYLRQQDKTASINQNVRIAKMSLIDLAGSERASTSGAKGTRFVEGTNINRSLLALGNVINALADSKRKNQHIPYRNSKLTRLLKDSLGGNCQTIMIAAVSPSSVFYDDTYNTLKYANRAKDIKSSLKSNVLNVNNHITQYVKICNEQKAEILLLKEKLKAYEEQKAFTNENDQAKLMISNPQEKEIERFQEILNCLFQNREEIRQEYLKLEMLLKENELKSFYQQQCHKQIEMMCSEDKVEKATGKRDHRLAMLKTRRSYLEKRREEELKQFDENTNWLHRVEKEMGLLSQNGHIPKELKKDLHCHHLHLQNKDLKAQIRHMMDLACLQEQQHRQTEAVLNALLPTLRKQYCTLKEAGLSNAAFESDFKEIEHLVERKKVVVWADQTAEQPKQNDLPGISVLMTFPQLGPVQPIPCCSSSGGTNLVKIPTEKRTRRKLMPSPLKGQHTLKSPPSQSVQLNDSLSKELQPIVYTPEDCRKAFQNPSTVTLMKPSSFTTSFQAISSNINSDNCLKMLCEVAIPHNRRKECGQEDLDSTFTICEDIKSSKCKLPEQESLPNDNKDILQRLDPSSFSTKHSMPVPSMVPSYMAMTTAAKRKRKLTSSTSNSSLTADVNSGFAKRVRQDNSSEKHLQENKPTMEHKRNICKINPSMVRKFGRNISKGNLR
UniProt P52701: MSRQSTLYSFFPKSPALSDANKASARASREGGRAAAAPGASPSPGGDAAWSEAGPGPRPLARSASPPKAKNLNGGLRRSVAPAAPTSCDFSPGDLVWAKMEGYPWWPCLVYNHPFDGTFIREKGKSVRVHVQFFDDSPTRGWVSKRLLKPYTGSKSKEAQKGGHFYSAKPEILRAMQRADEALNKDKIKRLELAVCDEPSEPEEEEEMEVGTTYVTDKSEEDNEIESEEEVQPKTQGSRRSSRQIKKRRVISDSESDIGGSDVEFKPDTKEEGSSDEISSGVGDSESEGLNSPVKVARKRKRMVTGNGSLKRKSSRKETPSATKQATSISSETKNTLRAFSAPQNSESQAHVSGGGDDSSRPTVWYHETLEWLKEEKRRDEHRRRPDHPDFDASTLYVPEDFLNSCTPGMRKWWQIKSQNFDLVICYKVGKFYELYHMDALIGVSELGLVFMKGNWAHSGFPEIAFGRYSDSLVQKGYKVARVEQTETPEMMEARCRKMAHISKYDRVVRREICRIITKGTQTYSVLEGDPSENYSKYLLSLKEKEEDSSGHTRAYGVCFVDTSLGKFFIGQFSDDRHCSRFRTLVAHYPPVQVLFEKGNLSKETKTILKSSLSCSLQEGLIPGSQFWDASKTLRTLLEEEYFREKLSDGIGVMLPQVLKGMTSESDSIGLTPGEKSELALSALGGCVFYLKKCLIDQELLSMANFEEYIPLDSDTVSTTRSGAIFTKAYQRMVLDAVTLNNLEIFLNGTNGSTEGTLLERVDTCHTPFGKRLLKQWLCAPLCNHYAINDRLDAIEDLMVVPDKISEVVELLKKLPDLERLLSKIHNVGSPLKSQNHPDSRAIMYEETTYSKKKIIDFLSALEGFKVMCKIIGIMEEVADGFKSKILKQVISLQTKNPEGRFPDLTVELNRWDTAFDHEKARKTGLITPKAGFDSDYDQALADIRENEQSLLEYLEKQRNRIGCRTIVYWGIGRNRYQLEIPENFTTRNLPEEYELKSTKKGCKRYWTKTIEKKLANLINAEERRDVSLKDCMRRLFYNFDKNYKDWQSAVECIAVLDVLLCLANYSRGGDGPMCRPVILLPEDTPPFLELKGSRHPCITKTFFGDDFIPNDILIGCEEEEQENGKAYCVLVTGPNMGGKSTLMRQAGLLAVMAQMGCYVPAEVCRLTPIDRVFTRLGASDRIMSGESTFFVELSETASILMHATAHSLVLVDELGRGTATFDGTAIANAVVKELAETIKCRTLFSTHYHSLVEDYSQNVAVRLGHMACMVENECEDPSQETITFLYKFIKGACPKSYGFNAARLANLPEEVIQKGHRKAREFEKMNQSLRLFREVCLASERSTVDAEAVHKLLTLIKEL
UniProt Q16637: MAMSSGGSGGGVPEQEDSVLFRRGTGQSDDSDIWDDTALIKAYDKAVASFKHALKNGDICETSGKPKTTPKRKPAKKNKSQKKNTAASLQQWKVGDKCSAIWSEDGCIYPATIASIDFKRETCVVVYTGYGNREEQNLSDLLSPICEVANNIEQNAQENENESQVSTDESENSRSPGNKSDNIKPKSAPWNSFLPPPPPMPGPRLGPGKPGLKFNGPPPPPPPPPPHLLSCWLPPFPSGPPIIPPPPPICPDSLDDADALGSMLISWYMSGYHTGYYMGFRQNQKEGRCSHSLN
UniProt Q14586: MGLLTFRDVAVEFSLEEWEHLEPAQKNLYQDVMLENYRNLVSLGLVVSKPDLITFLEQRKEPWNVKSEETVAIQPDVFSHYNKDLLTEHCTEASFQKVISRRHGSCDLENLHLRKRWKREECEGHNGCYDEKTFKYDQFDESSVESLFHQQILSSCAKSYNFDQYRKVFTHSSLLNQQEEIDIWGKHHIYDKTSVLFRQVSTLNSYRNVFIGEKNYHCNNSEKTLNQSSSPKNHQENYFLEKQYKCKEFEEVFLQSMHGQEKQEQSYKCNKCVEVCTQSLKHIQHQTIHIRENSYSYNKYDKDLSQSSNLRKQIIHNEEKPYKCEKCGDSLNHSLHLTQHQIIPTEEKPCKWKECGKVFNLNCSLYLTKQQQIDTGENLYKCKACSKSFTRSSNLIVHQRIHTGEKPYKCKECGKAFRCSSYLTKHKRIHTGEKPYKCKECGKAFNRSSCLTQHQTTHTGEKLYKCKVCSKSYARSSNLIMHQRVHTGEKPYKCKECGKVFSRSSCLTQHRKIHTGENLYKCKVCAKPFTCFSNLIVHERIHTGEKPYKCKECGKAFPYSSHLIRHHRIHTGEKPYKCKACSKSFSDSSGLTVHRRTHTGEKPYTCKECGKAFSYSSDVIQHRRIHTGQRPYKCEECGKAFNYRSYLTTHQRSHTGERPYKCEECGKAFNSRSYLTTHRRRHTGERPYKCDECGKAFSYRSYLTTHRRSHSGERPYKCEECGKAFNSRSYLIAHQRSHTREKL

B1: MBD1 (protein, UniProt Q9UIS9 1-605)
chain: MAEDWLDCPALGPGWKRREVFRKSGATCGRSDTYYQSPTGDRIRSKVELTRYLGPACDLTLFDFKQGILCYPAPKAHPVAVASKKRKKPSRPAKTRKRQVGPQSGEVRKEAPRDETKADTDTAPASFPAPGCCENCGISFSGDGTQRQRLKTLCKDCRAQRIAFNREQRMFKRVGCGECAACQVTEDCGACSTCLLQLPHDVASGLFCKCERRRCLRIVERSRGCGVCRGCQTQEDCGHCPICLRPPRPGLRRQWKCVQRRCLRGKHARRKGGCDSKMAARRRPGAQPLPPPPPSQSPEPTEPHPRALAPSPPAEFIYYCVDEDELQPYTNRRQNRKCGACAACLRRMDCGRCDFCCDKPKFGGSNQKRQKCRWRQCLQFAMKRLLPSVWSESEDGAGSPPPYRRRKRPSSARRHHLGPTLKPTLATRTAQPDHTQAPTKQEAGGGFVLPPPGTDLVFLREGASSPVQVPGPVAASTEALLQEAQCSGLSWVVALPQVKQEKADTQDEWTPGTAVLTSPVLVPGCPSKAVDPGLPSVKQEPPDPEEDKEENKDDSASKLAPEEEAGGAGTPVITEIFSLGGTRFRDTAVWLPRSKDLKKPGARKQ
B2: ZNF574 (protein, UniProt Q6ZN55 1-896)
chain: MTEESEETVLYIEHRYVCSECNQLYGSLEEVLMHQNSHVPQQHFELVGVADPGVTVATDTASGTGLYQTLVQESQYQCLECGQLLMSPSQLLEHQELHLKMMAPQEAVPAEPSPKAPPLSSSTIHYECVDCKALFASQELWLNHRQTHLRATPTKAPAPVVLGSPVVLGPPVGQARVAVEHSYRKAEEGGEGATVPSAAATTTEVVTEVELLLYKCSECSQLFQLPADFLEHQATHFPAPVPESQEPALQQEVQASSPAEVPVSQPDPLPASDHSYELRNGEAIGRDRRGRRARRNNSGEAGGAATQELFCSACDQLFLSPHQLQQHLRSHREGVFKCPLCSRVFPSPSSLDQHLGDHSSESHFLCVDCGLAFGTEALLLAHRRAHTPNPLHSCPCGKTFVNLTKFLYHRRTHGVGGVPLPTTPVPPEEPVIGFPEPAPAETGEPEAPEPPVSEETSAGPAAPGTYRCLLCSREFGKALQLTRHQRFVHRLERRHKCSICGKMFKKKSHVRNHLRTHTGERPFPCPDCSKPFNSPANLARHRLTHTGERPYRCGDCGKAFTQSSTLRQHRLVHAQHFPYRCQECGVRFHRPYRLLMHRYHHTGEYPYKCRECPRSFLLRRLLEVHQLVVHAGRQPHRCPSCGAAFPSSLRLREHRCAAAAAQAPRRFECGTCGKKVGSAARLQAHEAAHAAAGPGEVLAKEPPAPRAPRATRAPVASPAALGSTATASPAAPARRRGLECSECKKLFSTETSLQVHRRIHTGERPYPCPDCGKAFRQSTHLKDHRRLHTGERPFACEVCGKAFAISMRLAEHRRIHTGERPYSCPDCGKSYRSFSNLWKHRKTHQQQHQAAVRQQLAEAEAAVGLAVMETAVEALPLVEAIEIYPLAEAEGVQISG
B3: RFC1 (protein, UniProt P35251 1-1148)
chain: MDIRKFFGVIPSGKKLVSETVKKNEKTKSDEETLKAKKGIKEIKVNSSRKEDDFKQKQPSKKKRIIYDSDSESEETLQVKNAKKPPEKLPVSSKPGKISRQDPVTYISETDEEDDFMCKKAASKSKENGRSTNSHLGTSNMKKNEENTKTKNKPLSPIKLTPTSVLDYFGTGSVQRSNKKMVASKRKELSQNTDESGLNDEAIAKQLQLDEDAELERQLHEDEEFARTLAMLDEEPKTKKARKDTEAGETFSSVQANLSKAEKHKYPHKVKTAQVSDERKSYSPRKQSKYESSKESQQHSKSSADKIGEVSSPKASSKLAIMKRKEESSYKEIEPVASKRKENAIKLKGETKTPKKTKSSPAKKESVSPEDSEKKRTNYQAYRSYLNREGPKALGSKEIPKGAENCLEGLIFVITGVLESIERDEAKSLIERYGGKVTGNVSKKTNYLVMGRDSGQSKSDKAAALGTKIIDEDGLLNLIRTMPGKKSKYEIAVETEMKKESKLERTPQKNVQGKRKISPSKKESESKKSRPTSKRDSLAKTIKKETDVFWKSLDFKEQVAEETSGDSKARNLADDSSENKVENLLWVDKYKPTSLKTIIGQQGDQSCANKLLRWLRNWQKSSSEDKKHAAKFGKFSGKDDGSSFKAALLSGPPGVGKTTTASLVCQELGYSYVELNASDTRSKSSLKAIVAESLNNTSIKGFYSNGAASSVSTKHALIMDEVDGMAGNEDRGGIQELIGLIKHTKIPIICMCNDRNHPKIRSLVHYCFDLRFQRPRVEQIKGAMMSIAFKEGLKIPPPAMNEIILGANQDIRQVLHNLSMWCARSKALTYDQAKADSHRAKKDIKMGPFDVARKVFAAGEETAHMSLVDKSDLFFHDYSIAPLFVQENYIHVKPVAAGGDMKKHLMLLSRAADSICDGDLVDSQIRSKQNWSLLPAQAIYASVLPGELMRGYMTQFPTFPSWLGKHSSTGKHDRIVQDLALHMSLRTYSSKRTVNMDYLSLLRDALVQPLTSQGVDGVQDVVALMDTYYLMKEDFENIMEISSWGGKPSPFSKLDPKVKAAFTRAYNKEAHLTPYSLQAIKASRHSTSPSLDSEYNEELNEDDSQSDEKDQDAIETDAMIKKKTKSSKPSKPEKDKEPRKGKGKSSKK
B4: BBX (protein, UniProt Q8WY36 1-941)
chain: MKGSNRNKDHSAEGEGVGKRPKRKCLQWHPLLAKKLLDFSEEEEEEDEEEDIDKVQLLGADGLEQDVGETEDDESPEQRARRPMNAFLLFCKRHRSLVRQEHPRLDNRGATKILADWWAVLDPKEKQKYTDMAKEYKDAFMKANPGYKWCPTTNKPVKSPTPTVNPRKKLWAFPSDSSRDLPSPKKAKTEEMPQLNFGMADPTQMGGLSMLLLAGEHALGTPEVSSGTCRPDVSESPELRQKSPLFQFAEISSSTSHSDASTKQCQTSALFQFAEISSNTSQLGGAEPVKRCGKSALFQLAEMCLASEGMKMEESKLIKAKESDGGRIKELEKGKEEKEIKMEKTDETRLQKEAEFEKSAKENLRDSKELRNFEALQIDDIMAIKMEDPKEIRKEELEEDHKCSHFPDFSYSASSKIIISDVPSRKDHMCHPHGIMIIEDPAALNKPEKLKKKKKKSKMDRHGNDKSTPKKTCKKRQSSESDIESVIYTIEAVAKGDWGIEKLGDTPRKKVRTSSSGKGSILDAKPPKKKVKSREKKMSKEKSSDTTKESRPPDFISISASKNISGETPEGIKAEPLTPMEDALPPSLSGQAKPEDSDCHRKIETCGSRKSERSCKGALYKTLVSEGMLTSLRANVDRGKRSSGKGNSSDHEGCWNEESWTFSQSGTSGSKKFKKTKPKEDCLLGSAKLDEEFEKKFNSLPQYSPVTFDRKCVPVPRKKKKTGNVSSEPTKTSKGPFQSQKKNLFHKIVSKYKHKKEKPNVPEKGSGDKWSNKQLFLDAIHPTEAIFSEDRNTMEPVHKVKNIPSIFNTPEPTTTQEPLVGSQKRKARKTKITHLVRTADGRVSPAGGTLDDKPKEQLQRSLPKATETDCNDKCSHNTEVGETRSSTPEMPAVSAFFSLAALAEVAAMENVHRGQRSTPLTHDGQPKEMPQAPVLISCADQ

Target: 3× hemagglutinin (HA)-tagged Vpr (HIV-1 NL4-3) (HIV-1 (NL4-3)) (UniProt P12520)
Test: affinity purification with mass spectrometry

Row | Molecule | binding
1 | DDX20 (from UniProt Q9UHI6 1-824) | binds
2 | GEMIN4 (from UniProt P57678 1-1058) | binds
3 | KIF18A (from UniProt Q8NI77 1-898) | binds
4 | MSH6 (from UniProt P52701 1-1360) | binds
5 | SMN1 / SMN2 (from UniProt Q16637 1-294) | binds
6 | ZNF267 (from UniProt Q14586 1-743) | binds
7 | B1 | binds
8 | B2 | binds
9 | B3 | binds
10 | B4 | binds
